PubChem BioAssay AID1671195, Yale University, 2021

- Aim: 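Knockdowns that increase or decrease uptake of fluorescent LDL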 (primary screen)
- Cell system: human Huh7 hepatoma cells
- Knock-down reagent: siRNA pool against human genes, 18 nM
- Duration: about 2 to 2.5 days of knockdown, then 8 h LDL uptake
- Challenge: DiI-labelled LDL at 30 µg/ml for 8 h, in lipoprotein-deficient serum medium
- Measurement: 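Fluorescent LDL signal imaged in cells, scaled to the plate median, robust z-score for each replicate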
- Scale: robust z-score: higher = more LDL uptake after knockdown
- Hit rule: 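Active when two or more replicates show a robust z-score above 2 or below -2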
Shown is one part, drawn at random, of about 22,000 reagents tested. Of all reagents, about 1,510 (6.9%) were called active. 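Active includes knockdowns raising or lowering LDL uptake; positive z-scores mean more uptake, negative mean less.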 Entries without a mark were called inactive.

target gene | robust z-score, replicate 1 | robust z-score, replicate 2 | robust z-score, replicate 3
ZKSCAN5 (zinc finger with KRAB and SCAN domains 5) | 0.987 | 1.35 | 1.26
RBBP8NL (RBBP8 N-terminal like) | -0.814 | -0.727 | -0.946
LOC389562 (retired record) | -0.121 | 0.134 | -0.0728
RIPPLY2 (ripply transcriptional repressor 2) | -0.386 | 1.35 | 0.74
PLSCR3 (phospholipid scramblase 3) | 0.943 | 1.4 | 1.33
CASP6 (caspase 6) | -0.0664 | 0.96 | -0.301
TSPAN11 (tetraspanin 11) | 0.0712 | -0.19 | -0.191
RAB17 (RAB17, member RAS oncogene family) | 0.931 | 0.3 | 0.339
TXLNG (taxilin gamma) | -1.89 | -1.72 | -0.0666
ACOT9 (acyl-CoA thioesterase 9) | 1.1 | 1.95 | 1.42
LOC440483 (retired record) | 0.0488 | -0.684 | -0.158
RNF145 (ring finger protein 145) | -1.23 | -0.956 | -1.31
ZDHHC15 (zDHHC palmitoyltransferase 15) | 0.521 | 0.514 | 0.924
ABCC10 (ATP binding cassette subfamily C member 10) | -0.00494 | 0.422 | -0.805
FASN (fatty acid synthase) | 1.16 | 1.16 | 1.2
FBXW7 (F-box and WD repeat domain containing 7) | 1.23 | 1.06 | 1.44
LOC283157 (retired record) | -0.576 | -0.417 | -0.813
MARCHF11 (membrane associated ring-CH-type finger 11) | -0.234 | -0.749 | -0.229
ACYP1 (acylphosphatase 1) | -0.191 | -0.714 | -1.13
SMG7 (SMG7 nonsense mediated mRNA decay factor) | -0.339 | 1.64 | 1.35
FXN (frataxin) | 2.18 | 1.33 | 1.75
TTLL4 (tubulin tyrosine ligase like 4) | -0.919 | -0.281 | -0.694
LOC440826 (retired record) | 0.988 | 0.626 | 0.707
MPC1 | 1.45 (active) | 2.23 | 2.5
SUN1 (Sad1 and UNC84 domain containing 1) | 0.0371 | -1.65 | -0.983
OR1M1 (olfactory receptor family 1 subfamily M member 1) | -0.522 | -0.468 | -0.787
CPHL1P (ceruloplasmin and hephaestin like 1, pseudogene) | -1.4 | -1.08 | -1.28
RUNX1 (RUNX family transcription factor 1) | -0.097 | 0.00103 | 0.102
MYH10 (myosin heavy chain 10) | 0.345 | -0.321 | 0.192
ANO3 (anoctamin 3) | 0.425 | 0.934 | 0.5
MATCAP2 (microtubule associated tyrosine carboxypeptidase 2) | -2.72 (active) | -1.1 | -3.36
ADGRD1 (adhesion G protein-coupled receptor D1) | -2.6 (active) | -1.52 | -1.68
RPL3 (ribosomal protein L3) | -1.74 | -1.32 | -1.76
SH3BGRL3 (SH3 domain binding glutamate rich protein like 3) | -0.727 | -1.16 | -1.22
WBP2 (WW domain binding protein 2) | -1.67 | -0.468 | -1.37
LOC440619 (retired record) | 1.2 | 1.62 | 1.45
ACTR1B (actin related protein 1B) | -1.17 | -1.34 | -1.14
P2RX4 (purinergic receptor P2X 4) | 0.444 | -0.404 | -0.0949
SNRPD3 (small nuclear ribonucleoprotein D3 polypeptide) | 3.86 (active) | 4.49 | 2.29
RBM41 (RNA binding motif protein 41) | -0.504 | 0.779 | -0.455
CA5BP1 (carbonic anhydrase 5B pseudogene 1) | -0.335 | -0.291 | -0.42
KDM5A (lysine demethylase 5A) | -0.208 | -0.242 | -0.00594
LINC00656 (long independently transcribed non-coding RNA 656) | 0.295 | 0.974 | 0.49
NBPF8 (NBPF member 8) | 0.0992 | -0.168 | -0.447
ZNF132 (zinc finger protein 132) | -1.81 | -1.75 | -1.55
EMC1 (ER membrane protein complex subunit 1) | 1.2 | -1.29 | 1.64
ADH1C (alcohol dehydrogenase 1C (class I), gamma polypeptide) | -0.131 | -0.742 | -0.898
TAGLN (transgelin) | 0.971 | 0.747 | 0.31
TCF21 (transcription factor 21) | 0.367 | -0.725 | 0.207
ATP6AP2 (ATPase H+ transporting accessory protein 2) | -0.164 | -0.836 | -0.6
SERPINA9 (serpin family A member 9) | 0.691 | -0.3 | 0.136
ADAT3 (adenosine deaminase tRNA specific 3) | -1.17 | 0.0142 | -0.191
C16orf89 (chromosome 16 open reading frame 89) | 0.611 | 0.146 | -0.133
PMS2P5 | 1.24 (active) | 2.07 | 1.97
MOAP1 (modulator of apoptosis 1) | -2.27 (active) | -2.06 | -2.08
WAC (WW domain containing adaptor with coiled-coil) | -1.15 | -1.85 | -1.04
LOC440886 (retired record) | 0.0232 | 0.379 | 0.891
FANCB (FA complementation group B) | 0.113 | 1.52 | 0.752
ZNF20 (zinc finger protein 20) | -0.214 | -0.363 | -0.196
PCDHGA5 (protocadherin gamma subfamily A, 5) | -0.454 | -0.171 | -0.522
HNRNPH3 (heterogeneous nuclear ribonucleoprotein H3) | 0.768 | 0.785 | 0.874
GINS2 (GINS complex subunit 2) | 0.161 | -0.497 | 0.81
CYP4Z1 (cytochrome P450 family 4 subfamily Z member 1) | -0.371 | 0.18 | -0.434
LOC400969 (retired record) | 2.1 (active) | 1.62 | 2.03
YARS1 (tyrosyl-tRNA synthetase 1) | 0.051 | 0.181 | -0.0611
UTP14C (UTP14C small subunit processome component) | 1.39 | 0.75 | -0.36
KCTD15 (potassium channel tetramerization domain containing 15) | 2.06 (active) | 2.4 | 3.03
KCNK13 (potassium two pore domain channel subfamily K member 13) | -1.82 | -1.73 | -1.63

Targets above whose gene name begins with A or a:
target gene | robust z-score, replicate 1 | robust z-score, replicate 2 | robust z-score, replicate 3
ACOT9 (acyl-CoA thioesterase 9) | 1.1 | 1.95 | 1.42
ABCC10 (ATP binding cassette subfamily C member 10) | -0.00494 | 0.422 | -0.805
ACYP1 (acylphosphatase 1) | -0.191 | -0.714 | -1.13
ANO3 (anoctamin 3) | 0.425 | 0.934 | 0.5
ADGRD1 (adhesion G protein-coupled receptor D1) | -2.6 (active) | -1.52 | -1.68
ACTR1B (actin related protein 1B) | -1.17 | -1.34 | -1.14
ADH1C (alcohol dehydrogenase 1C (class I), gamma polypeptide) | -0.131 | -0.742 | -0.898
ATP6AP2 (ATPase H+ transporting accessory protein 2) | -0.164 | -0.836 | -0.6
ADAT3 (adenosine deaminase tRNA specific 3) | -1.17 | 0.0142 | -0.191
